Measurements from publication PMC8215223.
Results are given in words; binding and its absence hold for the method and conditions named. In cells and extracts the contact can be indirect. Some entries that bind do so weakly or less than the wild type. Tags and fused reporters may be left off the sequences shown.

Tests used:
[1] = target: T1, GFP-HOOK3 2SA (S238,707A) (human) (UniProt Q86VS8); test: co-IP; HeLa extracts in Buffer H (sonicated, 15,000 x g); 2 hr at 4°C with A/G-agarose beads pre-linked with antibody; washed with coIP-washing buffer; Western blot; cells left non-treated, treated with 100 ng/mL nocodazole for 16 hr, or released from a thymidine block
T1 sequence: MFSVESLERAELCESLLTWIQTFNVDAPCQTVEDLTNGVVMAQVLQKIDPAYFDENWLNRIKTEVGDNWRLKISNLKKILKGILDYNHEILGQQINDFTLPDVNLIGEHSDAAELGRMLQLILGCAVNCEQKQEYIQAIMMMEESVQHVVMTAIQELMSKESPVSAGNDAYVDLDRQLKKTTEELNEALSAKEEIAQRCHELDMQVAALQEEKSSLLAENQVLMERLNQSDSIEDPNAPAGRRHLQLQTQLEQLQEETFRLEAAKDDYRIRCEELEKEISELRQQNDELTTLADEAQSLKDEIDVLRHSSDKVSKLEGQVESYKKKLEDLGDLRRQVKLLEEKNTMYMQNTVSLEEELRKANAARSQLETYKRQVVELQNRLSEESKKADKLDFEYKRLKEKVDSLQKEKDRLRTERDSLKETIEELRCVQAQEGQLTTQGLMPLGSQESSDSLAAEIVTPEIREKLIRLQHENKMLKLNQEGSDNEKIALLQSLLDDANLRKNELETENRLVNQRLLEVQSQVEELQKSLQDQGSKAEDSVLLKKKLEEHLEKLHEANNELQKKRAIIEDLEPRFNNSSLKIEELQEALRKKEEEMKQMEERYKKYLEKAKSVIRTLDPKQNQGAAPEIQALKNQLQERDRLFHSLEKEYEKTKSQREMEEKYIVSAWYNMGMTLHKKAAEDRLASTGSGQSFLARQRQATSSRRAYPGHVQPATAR

GFP-HOOK3 S238E (human) = target: T2, GFP-HOOK3 S238E (human) (UniProt Q86VS8); test: as above
T2 sequence: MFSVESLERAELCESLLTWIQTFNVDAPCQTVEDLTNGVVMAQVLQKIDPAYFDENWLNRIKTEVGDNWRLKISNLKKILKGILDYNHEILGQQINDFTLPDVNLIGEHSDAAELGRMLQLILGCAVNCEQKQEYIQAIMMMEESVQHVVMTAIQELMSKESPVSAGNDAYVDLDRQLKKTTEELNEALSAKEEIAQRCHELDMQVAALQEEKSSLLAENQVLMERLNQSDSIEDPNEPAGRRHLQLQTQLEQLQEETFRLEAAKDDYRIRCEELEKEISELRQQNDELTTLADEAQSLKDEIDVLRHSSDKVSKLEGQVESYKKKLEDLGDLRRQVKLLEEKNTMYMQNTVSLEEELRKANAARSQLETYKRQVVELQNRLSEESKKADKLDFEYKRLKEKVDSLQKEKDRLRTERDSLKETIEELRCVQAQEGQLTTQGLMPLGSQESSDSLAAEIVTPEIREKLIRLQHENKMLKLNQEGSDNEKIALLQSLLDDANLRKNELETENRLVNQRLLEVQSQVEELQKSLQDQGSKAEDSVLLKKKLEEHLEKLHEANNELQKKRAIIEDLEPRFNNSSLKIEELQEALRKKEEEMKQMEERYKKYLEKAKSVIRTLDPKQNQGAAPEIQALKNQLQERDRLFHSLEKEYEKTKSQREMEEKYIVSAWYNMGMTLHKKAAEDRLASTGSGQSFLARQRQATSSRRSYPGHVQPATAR

- binding [1]: binds
- binding (GFP-HOOK3 S238E (human)): binds
B1: AuroraA (endogenous) (enzyme, UniProt O14965 1-403)
chain: MDRSKENCISGPVKATAPVGGPKRVLVTQQFPCQNPLPVNSGQAQRVLCPSNSSQRIPLQAQKLVSSHKPVQNQKQKQLQATSVPHPVSRPLNNTQKSKQPLPSAPENNPEEELASKQKNEESKKRQWALEDFEIGRPLGKGKFGNVYLAREKQSKFILALKVLFKAQLEKAGVEHQLRREVEIQSHLRHPNILRLYGYFHDATRVYLILEYAPLGTVYRELQKLSKFDEQRTATYITELANALSYCHSKRVIHRDIKPENLLLGSAGELKIADFGWSVHAPSSRRTTLCGTLDYLPPEMIEGRMHDEKVDLWSLGVLCYEFLVGKPPFEANTYQETYKRISRVEFTFPDFVTEGARDLISRLLKHNPSQRPMLREVLEHPWITANSSKPSNCQNKESASKQS
